Assay results: PubChem BioAssay AID1259415 (National Center for Advancing Translational Sciences (NCATS), 2018)
In all, about 410,000 compounds went through this assay and about 18,000 (4.4%) were called active. The shares of active, inactive and inconclusive entries below differ from those in the screen. Cut-off read from the data, not from the text of the source: active = activity change below about -60%; inconclusive = no clear call, values can overlap the other calls; inactive = above about -39%.

Experiment: qHTS Assay for inhibitors of the human cytomegalovirus (HCMV)
Settings: HFF cells, HCMV-luciferase reporter, 72 h; at 57.5 µM; active compounds read low
How it was run: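 After 16 h attachment at 37C, HFF cells received test compound and HCMV-luciferase (1 PFU/cell); reporter luminescence read 72 h later, data normalized against buffer-only and known inhibitor Salinomycin.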
% is set by controls: 0 for no effect and ±100 for the full control effect.

Row | SMILES | activity change, negative = inhibition
1 | CCOC(=O)N1CCC(N2Cc3cccc(C(=O)N4CCN(c5cccc(Cl)c5)CC4)c3C2=O)CC1 | inconclusive: -41.3%
2 | Cn1c(=O)c2c(nc(NCCCO)n2C/C=C/c2ccccc2)n(C)c1=O | inconclusive: -53.7%
3 | COc1ccc(NC(=S)N2CCN(c3ncccn3)CC2)cc1 | inconclusive: -53.8%
4 | CCCCOc1ccc(Cl)cc1CSc1nncn1N | inactive: -20.2%
5 | O=C(NCc1cccc(Cl)c1)C1Cc2c(-c3ccccc3Oc3ccccc3)ccnc2O1 (centres undefined) | inconclusive: -59.2%
6 | CCC(C)NC(=O)CSc1nc(-c2cccs2)cc(C(F)(F)F)n1 (centres undefined) | inconclusive: -43.5%
7 | CCc1nc2oc(C(=O)c3ccccc3)c(N)c2c2c1COC(C)(C)C2 | inconclusive: -44.4%
8 | CN1CCN(S(=O)(=O)c2ccc(NC(=O)Nc3cccc(Cl)c3)cc2)CC1 | inactive: -9.21%
9 | CC(=O)N1CCN(c2cc(N3CCc4ccccc4C3)c(F)cc2[N+](=O)[O-])CC1 | inconclusive: -43.2%
10 | Cc1ccc(/C=N/NC(=O)CSc2nnc(-c3ccccc3)n2-c2ccc(Cl)cc2)o1 | active: -83.6%
11 | O=C(c1cc(-c2ccccc2Cl)nc2ccccc12)N1CCN(c2ccccc2O)CC1 | inactive: -11.9%
12 | COc1ccc(-c2cc(C3CCN(c4ccc(C(C)=O)cc4[N+](=O)[O-])CC3)[nH]n2)cc1 | active: -98.3%
13 | CCc1cc(=O)oc2cc3occ(-c4ccc(OC)c(F)c4)c3cc12 | active: -67.9%
14 | CC(C)(C)c1ccc(NC(=O)COC(=O)c2ccc(NS(=O)(=O)c3ccc(F)c(F)c3)cc2)cc1 | inactive: -18.1%
15 | Cc1ccc(C)c(S(=O)(=O)Nc2ccc3c(c2)CCCN3C(=O)c2cccs2)c1 | inconclusive: -57.6%
16 | O=C(Nc1ccccc1)c1cccc(S(=O)(=O)N2CCCCC2)c1 | inconclusive: -55.5%
17 | CC(=O)Cn1c(CN2CCN(C(=O)c3ccco3)CC2)nc2c1c(=O)n(C)c(=O)n2C | inconclusive: -42%
18 | O=C1CC(c2cccs2)CC2=C1C(c1ccccc1)n1ncnc1N2 (centres undefined) | inconclusive: -40.5%
19 | Cc1ccc(NC(=O)c2cc3c(s2)CCC3)cc1S(=O)(=O)N1CCOCC1 | active: -65%
20 | NC(=O)COC(=O)c1ccccc1OCc1ccccc1Cl | inconclusive: -40.1%
21 | Cc1ccc(NS(=O)(=O)c2ccc(NC(=O)C3CC3)cc2)cc1C | inconclusive: -40.5%
22 | O=C1C(Nc2cccc(O)c2)=C(N2CCCCC2)C(=O)c2ccccc21 | inactive: -28%
23 | COc1cc2ccccc2cc1C(=O)Nc1ccc(C)cc1 | inactive: 272%
24 | Cc1ccc(NC(=O)CN(c2ccc(Cl)cc2)S(=O)(=O)c2cc([N+](=O)[O-])ccc2Cl)c(C)c1 | inconclusive: -54.1%
25 | CCS(=O)(=O)c1nc(S(=O)(=O)c2ccc(C)cc2)c(N2CC(C)CC(C)C2)s1 (centres undefined) | inconclusive: -52.7%
26 | CC(C)c1ccc(NC(=O)c2cc(S(=O)(=O)NCCc3ccccc3)ccc2F)cc1 | inconclusive: -53.1%
27 | CN(CCO)C(=O)c1nc[nH]c1C(=O)N1CCN(c2ccccc2)CC1 | inactive: -3.4%

Some of the entries above, reformatted:

| Row | SMILES | activity change, negative = inhibition |
| --- | --- | --- |
| 3 | COc1ccc(NC(=S)N2CCN(c3ncccn3)CC2)cc1 | inconclusive: -53.8% |
| 4 | CCCCOc1ccc(Cl)cc1CSc1nncn1N | inactive: -20.2% |
| 5 | O=C(NCc1cccc(Cl)c1)C1Cc2c(-c3ccccc3Oc3ccccc3)ccnc2O1 (centres undefined) | inconclusive: -59.2% |

More structures follow:

Row | SMILES | activity change, negative = inhibition
28 | N#CCCN1CCN(S(=O)(=O)c2ccc(C3CCCCC3)cc2)CC1 | inconclusive: -59.8%
29 | COc1cc(C(=O)Nc2ccc(Oc3ncnc4sc(-c5ccccc5)cc34)cc2)cc(OC)c1OC | inconclusive: -41.1%
30 | COc1cccc(/C=N/Nc2nccnc2Cl)c1O | active: -96.4%
31 | COc1ccc(CCC(C)N2CCOCC2)cc1 (centres undefined) | inactive: 47.5%
32 | CSc1ccc(CCNC(=O)C2CCCN(S(=O)(=O)N(C)c3ccc(F)cc3)C2)cc1 (centres undefined) | inconclusive: -46.6%
33 | CCCN1CCN(S(=O)(=O)c2c(C)[nH]c(C)c2C(=O)N2CCCCC2)CC1 | inconclusive: -43.5%
34 | Cc1ccnc(SCc2cc(=O)c(OC(=O)c3ccc(S(=O)(=O)N4CCCC4)cc3)co2)n1 | inconclusive: -41.7%
35 | CN(C(=O)c1ccccc1C(=O)OCC(=O)NCc1cccs1)C1CCCCC1 | inconclusive: -40.5%
36 | Cc1cc2c(=Cc3ccc(N(C)C)cc3)c3ccccc3n2[n+]1C | active: -97%
37 | C=CCn1cnnc1SCC(=O)N(C)CC1COc2ccccc2O1 (centres undefined) | inconclusive: -54%
38 | Cc1cccc(NC(=O)CNC(=O)CSc2nc(N)cc(N)n2)c1C | inactive: 5.82%
39 | CCOC(=O)c1sc2ncnc(N3CCN(C(=O)OCC)CC3)c2c1C | inconclusive: -53.6%
40 | COc1cc(C(=O)O/N=C2/C=C(C)C(=O)C=C2C)cc(OC)c1OC | inactive: -33.3%
41 | C=CCNC(=S)N/N=C/c1ccc(C)c([N+](=O)[O-])c1 | inconclusive: -42.2%
42 | CCc1ccc(S(=O)(=O)c2cn(C)c3ccc(C)cc3c2=O)cc1 | inactive: 12.1%
43 | C=CCc1cccc(/C=N/NC(=O)CNc2ccccc2OC)c1O | active: -97.7%
44 | CN(C)CCCNc1c2ccccc2nc2ccccc12 | active: -102%
45 | O=C(O)CSc1ccn(Cc2ccccc2)c1 | inconclusive: -47.7%
46 | Cc1ccc(C)c(NC(=S)NCC(c2ccccc2)N(C)C)c1 (centres undefined) | inconclusive: -47.3%
47 | O=C(c1ccco1)n1nc(NCc2ccccc2)nc1NCc1ccccc1 | inactive: -17.3%
48 | CCc1c(-c2ccccc2)nc2sc3c(c2c1N)CCCC3 | active: -92%
49 | NC(N)=NS(=O)(=O)c1ccc(N/C=C/C(=O)c2ccc(Cl)c(Cl)c2)cc1 | inconclusive: -45.5%
50 | Cc1ccc(-c2cc(C(=O)OCC(=O)N(C)C3CCS(=O)(=O)C3)c3ccccc3n2)o1 (centres undefined) | inconclusive: -55.5%
51 | CCC(Cc1ccccc1)NC(=O)C1CCCCC1 (centres undefined) | inconclusive: -45.7%
52 | O=C(NCc1ccccc1)c1c2c(nc3ccccc13)C(=O)N(C1CCCCC1)C2 | inactive: 19.2%
53 | O=C(O)c1ccccc1SC1CC(=O)N(c2ccc3c(c2)OCO3)C1=O (centres undefined) | inconclusive: -41%
54 | CC(=O)O[C@@]12CO[C@@H]1C[C@H](O)[C@@]1(C)C(=O)[C@H](O)C3=C(C)[C@@H](OC(=O)[C@H](O)[C@@H](NC(=O)c4ccccc4)c4ccccc4)C[C@@](O)([C@@H](OC(=O)c4ccccc4)C12)C3(C)C (some centres undefined) | inconclusive: -44%
